Experimental data: the supplement of paper PMC11542785
Counter-ions that a name gives are not always drawn. Some of the results follow. Most values come without repeats; read them as rough.

Test system: Drosophila melanogaster DPAGT1 (Alg7) RNAi eye model
Experiment: eye size Z-score vs DMSO-treated DPAGT1 model flies; higher = larger eye (suppression of DPAGT1 phenotype)
Details: 5 uM

Row | Structure (SMILES) | eye size Z-score | eye size Z-score (female)
1 | CN1CCN(C2=Nc3ccccc3Oc3ccc(Cl)cc32)CC1 [Loxapine succinate] | -0.27 | 
2 | Oc1c(Br)cc(Br)c2cccnc12 [Broxyquinoline] | 0.2 | 
3 | COc1ccc(CC(C)NCC(O)c2ccc(O)c(NC=O)c2)cc1 (stereo not drawn) [Formoterol fumarate] | -0.25 | 
4 | CCOC(=O)N1CCC(=C2c3ccc(Cl)cc3CCc3cccnc32)CC1 [Loratadine] | 0.15 | 
5 | CC(=O)[C@@]12O[C@](C)(c3ccccc3)O[C@@H]1C[C@H]1[C@@H]3CCC4=CC(=O)CC[C@]4(C)[C@H]3CC[C@@]12C [Algestone acetophenide] | 0.54 | 
6 | COC(=O)[C@H](c1ccccc1Cl)N1CCc2sccc2C1 [Clopidogrel] | -0.03 | 
7 | C[C@]12CCC(=O)C=C1CC[C@@H]1[C@@H]2C(=O)C[C@@]2(C)[C@H]1CC[C@]2(O)C(=O)CO [Cortisone] | 0.42 | 
8 | COCCCC/C(=N\OCCN)c1ccc(C(F)(F)F)cc1 [Fluvoxamine maleate] |  | 1.22
9 | C[C@H](N[C@@H](CCc1ccccc1)C(=O)O)C(=O)N1CCC[C@H]1C(=O)O [Enalaprilat dihydrate] | 0.64 | 
10 | CN(C)[C@@H]1C(O)=C(C(N)=O)C(=O)[C@@]2(O)C(O)=C3C(=O)c4c(O)cccc4[C@@](C)(O)[C@H]3C[C@@H]12 [Tetracycline hydrochloride] | 1.08 | 
11 | Cc1ccc(N(CC2=NCCN2)c2cccc(O)c2)cc1 [Phentolamine hydrochloride] | -0.06 | 
12 | CCc1ccc(CCOc2ccc(CC3SC(=O)NC3=O)cc2)nc1 (stereo not drawn) [Pioglitazone] | 0.29 | 
13 | Cc1c(Cl)cccc1Nc1ccccc1C(=O)O [Tolfenamic acid] | -0.15 | 
14 | CCCSc1ccc2[nH]c(NC(=O)OC)nc2c1 [Albendazole] | 1.02 | 
15 | CO[C@H]1/C=C/O[C@@]2(C)Oc3c(C)c(O)c4c(O)c(c(/C=N/N5CCN(C)CC5)c(O)c4c3C2=O)NC(=O)/C(C)=C\C=C\[C@H](C)[C@H](O)[C@@H](C)[C@@H](O)[C@@H](C)[C@H](OC(C)=O)[C@@H]1C [Rifampicin] | -0.43 | 
16 | CC(C(=O)O)c1ccc(CC2CCCC2=O)cc1 (stereo not drawn) [Loxoprofen] | 0.34 | 
17 | CC[C@H]1OC(=O)[C@H](C)[C@@H](O[C@H]2C[C@@](C)(OC)[C@@H](O)[C@H](C)O2)[C@H](C)[C@@H](O[C@@H]2O[C@H](C)C[C@H](N(C)C)[C@H]2O)[C@](C)(O)C[C@@H](C)C(=O)[C@H](C)[C@@H](O)[C@]1(C)O [Erythromycin] | 0.2 | 
18 | c1ccc(CC2=NCCN2)cc1 [Tolazoline hydrochloride] | -0.05 | 
19 | OCCN1CCN(CCCN2c3ccccc3Sc3ccc(C(F)(F)F)cc32)CC1 [Fluphenazine dihydrochloride] | -1.15 | 
20 | CC(C)(Oc1ccc(CCNC(=O)c2ccc(Cl)cc2)cc1)C(=O)O [Bezafibrate] | 0.11 | 
21 | O=C1c2ccccc2C(=O)C1c1ccccc1 [Phenindione] | 0.87 | 
22 | Clc1ccc2c(c1)C(N1CCNCC1)=Nc1ccccc1O2 [Amoxapine] | -0.89 | 
23 | O=C(O)CCc1nc(-c2ccccc2)c(-c2ccccc2)o1 [Oxaprozin] | -0.71 | 
24 | C[C@H](NCc1ccc(OCc2cccc(F)c2)cc1)C(N)=O [Safinamide] | 1.26 | 

A section of the results above:
Row | Structure (SMILES) | eye size Z-score | eye size Z-score (female)
3 | COc1ccc(CC(C)NCC(O)c2ccc(O)c(NC=O)c2)cc1 (stereo not drawn) [Formoterol fumarate] | -0.25 | 
4 | CCOC(=O)N1CCC(=C2c3ccc(Cl)cc3CCc3cccnc32)CC1 [Loratadine] | 0.15 | 
5 | CC(=O)[C@@]12O[C@](C)(c3ccccc3)O[C@@H]1C[C@H]1[C@@H]3CCC4=CC(=O)CC[C@]4(C)[C@H]3CC[C@@]12C [Algestone acetophenide] | 0.54 | 

Going on with the list.

Row | Structure (SMILES) | eye size Z-score | eye size Z-score (female)
25 | CC(=O)OCC(=O)NCCCOc1cccc(CN2CCCCC2)c1 [Roxatidine acetate hydrochloride] |  | -0.51
26 | CCn1cc(C(=O)O)c(=O)c2cc(F)c(N3CCNCC3)nc21 [Enoxacin] | -0.05 | 
27 | CCCc1ncc(C[n+]2ccccc2C)c(N)n1 [Amprolium hydrochloride] | 0.93 | 
28 | CC(C(=O)O)c1cccc(Oc2ccccc2)c1 (stereo not drawn) [Fenoprofen calcium salt dihydrate] | 0.48 | 
29 | Oc1ccc(C2CNCCc3c2cc(O)c(O)c3Cl)cc1 (stereo not drawn) [Fenoldopam] | 0.73 | 
30 | CC(C)=CCOc1ccc(/C=C/C(=O)c2ccc(OCC=C(C)C)cc2OCC(=O)O)cc1 [Sofalcone] | 0.71 | 
31 | O=C1OC(c2ccc(O)cc2)(c2ccc(O)cc2)c2ccccc21 [Phenolphthalein] | 0.87 | 
32 | CS(=O)(=O)c1ccc([C@@H](O)[C@@H](CF)NC(=O)C(Cl)Cl)cc1 [Florfenicol] | 0.99 | 
33 | CCN(CC)CCCC(C)Nc1ccnc2cc(Cl)ccc12 (stereo not drawn) [Chloroquine diphosphate] | 0.94 | 
34 | Nc1ccc(S(=O)(=O)NC(=O)c2ccccc2)cc1 [Sulfabenzamide] | -0.71 | 
35 | CC(C)c1nc(N(C)S(C)(=O)=O)nc(-c2ccc(F)cc2)c1/C=C/[C@@H](O)C[C@@H](O)CC(=O)O [Rosuvastatin] | 1.51 | 
36 | C=C(CC)C(=O)c1ccc(OCC(=O)O)c(Cl)c1Cl [Ethacrynic acid] | 0.1 | 
37 | C1N2CN3CN1CN(C2)C3 [Methenamine] | -0.9 | 
38 | O=C1NCCN1c1ncc([N+](=O)[O-])s1 [Niridazole] | -1.36 | 
39 | CCCCCN(C)CCC(O)(P(=O)(O)O)P(=O)(O)O [Ibandronate sodium] | -1.17 | 
40 | CC(C)(C)C(=O)OCOC(=O)[C@@H]1N2C(=O)[C@@H](/N=C/N3CCCCCC3)[C@H]2SC1(C)C [Pivmecillinam hydrochloride] | -0.19 | 
41 | CC(C)OC(=O)C(C(=O)OC(C)C)=C1SC=CS1 [Malotilate] | 0.14 | 
42 | Cc1ncc([N+](=O)[O-])n1C [Dimetridazole] | 0.57 | 
43 | CNc1ncnc2c1ncn2[C@@H]1O[C@H](CO)[C@@H](O)[C@H]1O [N6-methyladenosine] | -0.17 | 
44 | C[C@@H](O)[C@H]1C(=O)N2C(C(=O)O)=C(SCCNC=N)C[C@H]12 [Imipenem] | 0.45 | 
45 | COc1cccc(CCc2ccccc2OCC(CN(C)C)OC(=O)CCC(=O)O)c1 (stereo not drawn) [Sarpogrelate hydrochloride] | 0.36 | 
46 | c1ccc2c(c1)CCCC2C1=NCCN1 (stereo not drawn) [Tetrahydrozoline hydrochloride] | -0.54 | 
47 | N[C@H](Cc1ccccc1)C(=O)O [D-phenylalanine] | 1.03 | 
48 | CCOC(=O)Nc1ccc2c(c1)N(C(=O)CCN1CCOCC1)c1ccccc1S2 [Moricizine hydrochloride] | -0.2 | 
